According to article PMC9925821:
Results are given in words; binding and its absence hold for the method and conditions named. Binding seen in cells or lysates may run through a third protein. Some binding calls cover weakened binding; strength is not graded here. Tags and fused reporters may be left off the sequences shown.

The chains behind the UniProt entries cited, without tags or fusion partners.
UniProt Q8TCG2: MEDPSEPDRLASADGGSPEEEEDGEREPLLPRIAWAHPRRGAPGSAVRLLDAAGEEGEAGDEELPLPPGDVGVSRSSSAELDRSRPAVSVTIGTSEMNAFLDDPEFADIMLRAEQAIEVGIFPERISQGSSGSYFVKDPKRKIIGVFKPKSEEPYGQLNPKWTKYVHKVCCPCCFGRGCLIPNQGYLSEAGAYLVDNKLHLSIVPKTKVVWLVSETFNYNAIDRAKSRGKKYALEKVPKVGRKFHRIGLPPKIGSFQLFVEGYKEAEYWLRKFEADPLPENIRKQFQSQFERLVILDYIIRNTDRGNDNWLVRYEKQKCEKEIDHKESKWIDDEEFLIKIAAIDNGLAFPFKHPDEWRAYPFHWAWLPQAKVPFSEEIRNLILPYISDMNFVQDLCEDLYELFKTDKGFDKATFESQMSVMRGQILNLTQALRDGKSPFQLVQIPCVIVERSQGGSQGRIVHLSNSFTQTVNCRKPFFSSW
UniProt P62491: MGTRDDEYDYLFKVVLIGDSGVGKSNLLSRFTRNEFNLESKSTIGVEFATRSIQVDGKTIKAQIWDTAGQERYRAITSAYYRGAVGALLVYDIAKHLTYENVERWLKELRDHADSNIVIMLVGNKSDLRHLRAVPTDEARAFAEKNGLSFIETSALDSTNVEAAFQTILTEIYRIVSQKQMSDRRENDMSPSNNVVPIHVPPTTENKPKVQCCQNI

Target: T1, Flag-FKBP51 (True-ORF-Myc-DDK (Flag)-tagged human FKBP51-transcript variant 1) (human) (UniProt Q13451)
T1 sequence: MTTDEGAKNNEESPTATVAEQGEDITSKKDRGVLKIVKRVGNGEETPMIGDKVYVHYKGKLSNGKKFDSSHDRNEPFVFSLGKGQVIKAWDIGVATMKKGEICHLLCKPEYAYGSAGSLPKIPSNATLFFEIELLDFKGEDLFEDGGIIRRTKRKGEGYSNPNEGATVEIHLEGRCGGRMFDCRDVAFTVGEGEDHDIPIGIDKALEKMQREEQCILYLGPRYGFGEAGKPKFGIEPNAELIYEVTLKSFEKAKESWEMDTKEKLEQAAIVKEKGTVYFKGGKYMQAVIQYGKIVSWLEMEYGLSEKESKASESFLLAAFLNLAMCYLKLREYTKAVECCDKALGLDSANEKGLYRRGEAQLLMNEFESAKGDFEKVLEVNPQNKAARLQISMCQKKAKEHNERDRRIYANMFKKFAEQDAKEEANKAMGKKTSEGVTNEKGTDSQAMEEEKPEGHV
Test: co-IP; A375 cells transfected with Flag-tagged FKBP51 forms (with or without HA-PHLPP, HA-K63-Ub, siPHLPP RNAs), immunoprecipitated with anti-Flag antibody, IgG or empty vector as control, immunoblot

Row | binding | Substance
1 | binds | PI4K2B (from UniProt Q8TCG2 1-481)
2 | binds | Rab11a (from UniProt P62491 1-216)
